# US20150212068A1, “Cholyl-L-Lysyl-Fluorescein Assay” (Novassay SA, priority 2012, published 2015)
# What was measured:
# [1] = Evaluation of HPLC samples (Sample Set 2, rat samples) with the CLF ELISA
# [2] = Assay drift and recovery of spiked CLF, CLF ELISA; design: species or system human
# [3] = Intra-assay precision, sensitivity, spiking and dilution recovery of CLF added to different plasmas, labelled-antibody ELISA; design: species or system human
# [4] = Comparison of standards prepared from aqueous ethanol and methanol stock solutions, CLF ELISA; type: physicochemical
# [5] = Interfering substances (haemolysis, icteria, lipaemia) in the CLF ELISA; design: species or system human
# [6] = test pool, interferent 1 mg/ml, Intralipid in 500 ng/ml CLF serum pool, Hb and bilirubin in 100 ng/ml pool (NaOH)
compound,measurement,setting,value
"CC(CCC(=O)NC(CCCCNC(=S)Nc1ccc(-c2c3ccc(=O)cc-3oc3cc(O)ccc23)c(C(=O)O)c1)C(=O)O)C1CCC2C3C(O)CC4CC(O)CCC4(C)C3CC(O)C12C [CLF, Cholyl-L-Lysyl-Fluorescein]",Measured CLF (ng/ml) Mean,[1]; Rat CAL 1,<5 ng/mL
same,Measured CLF (ng/ml) Rep. 1,[1]; Rat CAL 1,6.2 ng/mL
same,Measured CLF (ng/ml) Rep. 2,[1]; Rat CAL 1,2.5 ng/mL
same,Measured CLF (ng/ml) Mean,[1]; Rat CAL 2,22 ng/mL
same,Measured CLF (ng/ml) Rep. 1,[1]; Rat CAL 2,22.7 ng/mL
same,Measured CLF (ng/ml) Rep. 2,[1]; Rat CAL 2,22.2 ng/mL
same,Measured CLF (ng/ml) Mean,[1]; Rat CAL 3,54 ng/mL
same,Measured CLF (ng/ml) Rep. 1,[1]; Rat CAL 3,55.0 ng/mL
same,Measured CLF (ng/ml) Rep. 2,[1]; Rat CAL 3,52.2 ng/mL
same,Measured CLF (ng/ml) Mean,[1]; Rat CAL 4,174 ng/mL
same,Measured CLF (ng/ml) Rep. 1,[1]; Rat CAL 4,163.6 ng/mL
same,Measured CLF (ng/ml) Rep. 2,[1]; Rat CAL 4,185.2 ng/mL
same,Measured CLF (ng/ml) Mean,[1]; Rat CAL 5,346 ng/mL
same,Measured CLF (ng/ml) Rep. 1,[1]; Rat CAL 5,381.0 ng/mL
same,Measured CLF (ng/ml) Rep. 2,[1]; Rat CAL 5,311.2 ng/mL
same,Measured CLF (ng/ml) Mean,[1]; Rat CAL 6,721 ng/mL
same,Measured CLF (ng/ml) Rep. 1,[1]; Rat CAL 6,712.4 ng/mL
same,Measured CLF (ng/ml) Rep. 2,[1]; Rat CAL 6,730.5 ng/mL
same,Measured CLF (ng/ml) Mean,[1]; Rat CAL 7,1368 ng/mL
same,Measured CLF (ng/ml) Rep. 1,[1]; Rat CAL 7,1272.1 ng/mL
same,Measured CLF (ng/ml) Rep. 2,[1]; Rat CAL 7,1464.7 ng/mL
same,observed,"[2]; #5885 #1, spiked a week prior, kept at 2-8° C., expected 62.5 ng/ml",63 ng/mL
same,observed,"[2]; #5885 #2, spiked a week prior, kept at 2-8° C., expected 125 ng/ml",119 ng/mL
same,observed,"[2]; #5885 #3, spiked a week prior, kept at 2-8° C., expected 500 ng/ml",485 ng/mL
same,observed,"[2]; QC1, serum spiked the day prior, expected 31.25 ng/ml",37 ng/mL
same,observed,"[2]; QC2, serum spiked the day prior, expected 125 ng/ml",119 ng/mL
same,observed,"[2]; QC3, serum spiked the day prior, expected 500 ng/ml",438 ng/mL
same,sensitivity,[3]; assay plate of plasma #5876,3.8 ng/mL
same,sensitivity,[3]; assay plate of plasma #5878,2.8 ng/mL
same,sensitivity,[3]; assay plate of plasma #5881,3 ng/mL
same,sensitivity,[3]; assay plate of plasma #5883,3.3 ng/mL
same,sensitivity,[3]; assay plate of plasma #5884,3.2 ng/mL
same,sensitivity,[3]; assay plate of plasma #5885,3.8 ng/mL
same,difference between expected and obtained concentrations,[4]; freshly prepared aqueous ethanol standards,5%
same,"slope, observed vs expected concentration",[4]; freshly prepared aqueous ethanol stock standards read off aged (3 week old) aqueous ethanol standard curve,1.05
same,difference between expected and obtained concentrations,[4]; freshly prepared methanol standards,48%
same,"slope, observed vs expected concentration",[4]; freshly prepared methanol stock standards read off aged (3 week old) aqueous ethanol standard curve,1.48
Hb,effect of interference end of plate,"[5]; % change in CLF concentration vs base pool, interferent 1 mg/ml, Intralipid in 500 ng/ml CLF serum pool, Hb and bilirubin in 100 ng/ml pool (NaOH)",−4%
same,"CLF concentration, ng/ml","[5]; high dose spikes, test pool: Intralipid 230 mg/ml, haemoglobin and bilirubin 4 and 4.5 mg/ml, off scale = >1000 ng/ml",off
same,"CLF concentration, ng/ml beginning of plate",[5]; [6],83 ng/mL
same,"CLF concentration, ng/ml end of plate",[5]; [6],83 ng/mL
